In this assay the target is AC5-miniTurbo-FLAG fusion protein (human adenylyl cyclase 5) (human) (UniProt O95622). In words: co-IP; pull-down of AC5-mT-FLAG from neonatal rat cardiomyocytes after isoproterenol (2 min, 10 nM), lysis in 0.5% C12E10, Western blot. For orientation: A western blot detects proteins with antibodies after separation by electrophoresis.

Sequences of proteins named here, by UniProt entry; tags and fusion partners are left off.
UniProt O95622: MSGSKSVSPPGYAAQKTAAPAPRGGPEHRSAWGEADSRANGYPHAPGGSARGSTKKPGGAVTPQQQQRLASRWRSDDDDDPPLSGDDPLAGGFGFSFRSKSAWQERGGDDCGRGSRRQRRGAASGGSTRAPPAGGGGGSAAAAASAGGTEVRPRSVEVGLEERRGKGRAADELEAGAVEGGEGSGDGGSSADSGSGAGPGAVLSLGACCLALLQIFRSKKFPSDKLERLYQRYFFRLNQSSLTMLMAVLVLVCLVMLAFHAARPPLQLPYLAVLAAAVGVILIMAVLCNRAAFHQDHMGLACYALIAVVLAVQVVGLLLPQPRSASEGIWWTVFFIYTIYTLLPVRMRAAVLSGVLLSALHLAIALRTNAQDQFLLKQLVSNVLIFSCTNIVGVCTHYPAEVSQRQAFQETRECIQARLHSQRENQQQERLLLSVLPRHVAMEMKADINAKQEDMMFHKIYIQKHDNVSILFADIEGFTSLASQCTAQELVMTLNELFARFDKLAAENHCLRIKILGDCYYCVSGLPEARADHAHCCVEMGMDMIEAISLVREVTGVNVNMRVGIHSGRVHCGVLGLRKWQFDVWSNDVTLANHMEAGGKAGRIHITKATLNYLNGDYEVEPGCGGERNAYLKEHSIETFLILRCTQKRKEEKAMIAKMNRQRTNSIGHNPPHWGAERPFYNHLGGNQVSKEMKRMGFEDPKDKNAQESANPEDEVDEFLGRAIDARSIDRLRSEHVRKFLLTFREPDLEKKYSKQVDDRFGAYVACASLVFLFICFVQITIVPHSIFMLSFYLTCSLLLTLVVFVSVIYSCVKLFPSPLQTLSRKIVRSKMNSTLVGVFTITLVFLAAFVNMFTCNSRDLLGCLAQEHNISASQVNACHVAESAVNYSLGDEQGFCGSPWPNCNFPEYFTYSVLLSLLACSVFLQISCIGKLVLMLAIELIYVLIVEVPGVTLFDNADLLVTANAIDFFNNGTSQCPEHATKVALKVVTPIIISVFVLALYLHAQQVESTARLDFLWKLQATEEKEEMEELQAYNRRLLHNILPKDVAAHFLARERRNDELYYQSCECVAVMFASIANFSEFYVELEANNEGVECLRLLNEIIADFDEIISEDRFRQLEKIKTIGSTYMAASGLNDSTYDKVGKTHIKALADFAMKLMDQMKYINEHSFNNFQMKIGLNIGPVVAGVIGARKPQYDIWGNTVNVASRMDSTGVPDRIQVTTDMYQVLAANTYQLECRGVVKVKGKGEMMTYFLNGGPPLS
UniProt P63095: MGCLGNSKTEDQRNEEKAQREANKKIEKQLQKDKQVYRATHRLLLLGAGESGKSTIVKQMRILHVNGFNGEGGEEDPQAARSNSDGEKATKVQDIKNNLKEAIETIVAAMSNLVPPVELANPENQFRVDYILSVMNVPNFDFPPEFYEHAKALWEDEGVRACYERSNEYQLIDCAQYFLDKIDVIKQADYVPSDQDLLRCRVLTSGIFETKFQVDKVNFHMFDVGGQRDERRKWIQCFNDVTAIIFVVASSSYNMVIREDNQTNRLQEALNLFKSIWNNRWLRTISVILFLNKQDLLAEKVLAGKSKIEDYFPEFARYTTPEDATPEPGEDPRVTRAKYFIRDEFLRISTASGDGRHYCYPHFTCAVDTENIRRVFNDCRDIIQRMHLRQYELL

No constants are given. Whether binding was seen depends on the method and setting. In cells and extracts the contact can be indirect. Some results given as binding are weak or reduced against the parent protein; the word gives no strength.

Turning to Gαs (from UniProt P63095 1-394), the binding entry is listed as “binds”.

Source of the values: PMC12446771.
